Reference: patent publication US8722690B2, “Mesoionic pesticides” (E I du Pont de Nemours and Company, priority 2009, dated 2014)
Read-outs that look alike come from different tables or passages of the source. Some results were stated once for a whole list of compounds, not compound by compound. At least one structure is not confirmed: it was looked up by name or label, or the drawing left a doubt.

Key:
Format in all cases: in vivo
[1] = test system: diamondback moth (Plutella xylostella); test: Test A: control of diamondback moth on radish plant, foliar spray; details: 6 days, very good to excellent levels of control efficacy
[2] = test system: potato leafhopper (Empoasca fabae); details: 6 days, Soleil bean plant, very good to excellent levels of control efficacy
Method: For evaluating control of potato leafhopper (Empoasca fabae) through contact and/or systemic means, the test unit consisted of a small open container with a 5-6-day-old Soleil bean plant (primary leaves emerged) inside. White sand was added to the top of the soil and one of the primary leaves was excised prior to application.
Test compounds were formulated and sprayed at 50 ppm and/or 10 ppm, and the tests were replicated three times as described for Test A. After spraying, the test units were allowed to dry for 1 h before they were post-infested with 5 potato leafhoppers (18-21-day-old adults). A black, screened cap was placed on the top of each test unit, and the test units were held for 6 days in a growth chamber at 24° C. and 70% relative humidity. Each test unit was then visually assessed for insect mortality.

[3] = test system: fall armyworm (Spodoptera frugiperda); test: Test B: control of fall armyworm on maize plant, foliar spray; details: sprayed at 10 ppm, very good to excellent levels of control efficacy

SMILES: O=c1c(-c2ccccc2F)c([O-])[n+](Cc2cnc(Cl)s2)c2c(I)cccn12 [Compound 212]
- control efficacy: feeding damage (40% or less feeding damage and/or 100% mortality) ([1]; sprayed at 10 ppm): ≤ 40%
- control efficacy: feeding damage (40% or less feeding damage and/or 100% mortality) ([1]; sprayed at 50 ppm): ≤ 40%
- control efficacy: mortality ([2]; sprayed at 10 ppm): ≥ 80%
- control efficacy: mortality ([2]; sprayed at 50 ppm): ≥ 80%

SMILES: O=c1c(-c2ccccc2)c([O-])[n+](Cc2cnc(Cl)s2)c2c(I)cccn12 [Compound 218]
- control efficacy: feeding damage (40% or less feeding damage and/or 100% mortality) ([1]; sprayed at 10 ppm): ≤ 40%
- control efficacy: feeding damage (40% or less feeding damage and/or 100% mortality) ([1]; sprayed at 50 ppm): ≤ 40%
- control efficacy: mortality ([2]; sprayed at 10 ppm): ≥ 80%
- control efficacy: mortality ([2]; sprayed at 50 ppm): ≥ 80%

SMILES: Cc1cccn2c(=O)c(-c3cc(C(F)(F)F)ccc3[N+](=O)[O-])c([O-])[n+](Cc3cnc(Cl)s3)c12 [Compound 225]
- control efficacy: feeding damage (40% or less feeding damage and/or 100% mortality) ([1]; sprayed at 10 ppm): ≤ 40%
- control efficacy: feeding damage (40% or less feeding damage and/or 100% mortality) ([1]; sprayed at 50 ppm): ≤ 40%
- control efficacy: mortality ([2]; sprayed at 50 ppm): ≥ 80%

SMILES: Cc1c([O-])[n+](Cc2cnc(Cl)s2)c2c(C)cccn2c1=O [Compound 275]
- control efficacy: feeding damage (40% or less feeding damage and/or 100% mortality) ([1]; sprayed at 50 ppm): ≤ 40%
- control efficacy: mortality ([2]; sprayed at 50 ppm): ≥ 80%

SMILES: Cc1cccn2c(=O)c(C(C)C)c([O-])[n+](Cc3cnc(Cl)s3)c12 [Compound 280]
- control efficacy: feeding damage (40% or less feeding damage and/or 100% mortality) ([1]; sprayed at 10 ppm): ≤ 40%
- control efficacy: feeding damage (40% or less feeding damage and/or 100% mortality) ([1]; sprayed at 50 ppm): ≤ 40%
- control efficacy: mortality ([2]; sprayed at 50 ppm): ≥ 80%

SMILES: CCc1c([O-])[n+](Cc2cnc(Cl)s2)c2c(C)cccn2c1=O [Compound 282]
- control efficacy: feeding damage (40% or less feeding damage and/or 100% mortality) ([1]; sprayed at 50 ppm): ≤ 40%
- control efficacy: mortality ([2]; sprayed at 10 ppm): ≥ 80%
- control efficacy: mortality ([2]; sprayed at 50 ppm): ≥ 80%

SMILES: C#CCc1c([O-])[n+](Cc2cnc(Cl)s2)c2c(C)cccn2c1=O [Compound 358]
- control efficacy: mortality ([2]; sprayed at 50 ppm): ≥ 80%

SMILES: CC#CCc1c([O-])[n+](Cc2cnc(Cl)s2)c2c(C)cccn2c1=O [Compound 361]
- control efficacy: mortality ([2]; sprayed at 50 ppm): ≥ 80%

SMILES: COc1cc(-c2ccc(Cl)cc2F)cc(-c2c([O-])[n+](Cc3cnc(Cl)s3)c3c(C)cccn3c2=O)c1 [Compound 491]
- control efficacy: feeding damage (40% or less feeding damage and/or 100% mortality) ([1]; sprayed at 10 ppm): ≤ 40%
- control efficacy: feeding damage (40% or less feeding damage and/or 100% mortality) [3]: ≤ 40%

SMILES: Cc1cccn2c(=O)c(-c3cc(-c4ccc(C(F)(F)F)cc4Cl)cs3)c([O-])[n+](Cc3cnc(Cl)s3)c12 [Compound 492]
- control efficacy: feeding damage (40% or less feeding damage and/or 100% mortality) ([1]; sprayed at 10 ppm): ≤ 40%
- control efficacy: feeding damage (40% or less feeding damage and/or 100% mortality) [3]: ≤ 40%

SMILES: Cc1cccn2c(=O)c(-c3cc(C#N)cc(-c4ccc(Cl)cc4F)c3)c([O-])[n+](Cc3cnc(Cl)s3)c12 [Compound 493]
- control efficacy: feeding damage (40% or less feeding damage and/or 100% mortality) ([1]; sprayed at 10 ppm): ≤ 40%
- control efficacy: feeding damage (40% or less feeding damage and/or 100% mortality) [3]: ≤ 40%

SMILES: Cc1cccn2c(=O)c(-c3cc(F)cc(I)c3)c([O-])[n+](Cc3cnc(Cl)s3)c12 [Compound 496]
- control efficacy: feeding damage (40% or less feeding damage and/or 100% mortality) ([1]; sprayed at 10 ppm): ≤ 40%
- control efficacy: feeding damage (40% or less feeding damage and/or 100% mortality) [3]: ≤ 40%

SMILES: Cc1cc(I)cc(-c2c([O-])[n+](Cc3cnc(Cl)s3)c3c(C)cccn3c2=O)c1 [Compound 497]
- control efficacy: feeding damage (40% or less feeding damage and/or 100% mortality) ([1]; sprayed at 10 ppm): ≤ 40%
- control efficacy: feeding damage (40% or less feeding damage and/or 100% mortality) [3]: ≤ 40%

SMILES: Cc1cccn2c(=O)c(-c3cc(F)cc(-c4cc(C(F)(F)F)ccc4F)c3)c([O-])[n+](Cc3cnc(Cl)s3)c12 [Compound 500]
- control efficacy: feeding damage (40% or less feeding damage and/or 100% mortality) ([1]; sprayed at 10 ppm): ≤ 40%
- control efficacy: feeding damage (40% or less feeding damage and/or 100% mortality) [3]: ≤ 40%

SMILES: Cc1cccn2c(=O)c(-c3ccc(F)c(-c4ccc(F)cc4C(F)(F)F)c3)c([O-])[n+](Cc3cnc(Cl)s3)c12 [Compound 501]
- control efficacy: feeding damage (40% or less feeding damage and/or 100% mortality) ([1]; sprayed at 10 ppm): ≤ 40%
- control efficacy: feeding damage (40% or less feeding damage and/or 100% mortality) [3]: ≤ 40%
